Results as given in US9637495B2, “CGRP receptor antagonists” (Eli Lilly and Company, priority 2015, dated 2017).
Some results were stated once for a whole list of compounds, not compound by compound.

The chains behind the UniProt entries cited, without tags or fusion partners. Residues count along the entry.
UniProt O60894, 27-148: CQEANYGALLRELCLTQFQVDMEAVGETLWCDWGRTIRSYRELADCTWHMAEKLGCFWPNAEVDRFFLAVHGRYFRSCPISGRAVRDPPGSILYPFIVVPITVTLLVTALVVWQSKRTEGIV
UniProt Q16602, 23-461: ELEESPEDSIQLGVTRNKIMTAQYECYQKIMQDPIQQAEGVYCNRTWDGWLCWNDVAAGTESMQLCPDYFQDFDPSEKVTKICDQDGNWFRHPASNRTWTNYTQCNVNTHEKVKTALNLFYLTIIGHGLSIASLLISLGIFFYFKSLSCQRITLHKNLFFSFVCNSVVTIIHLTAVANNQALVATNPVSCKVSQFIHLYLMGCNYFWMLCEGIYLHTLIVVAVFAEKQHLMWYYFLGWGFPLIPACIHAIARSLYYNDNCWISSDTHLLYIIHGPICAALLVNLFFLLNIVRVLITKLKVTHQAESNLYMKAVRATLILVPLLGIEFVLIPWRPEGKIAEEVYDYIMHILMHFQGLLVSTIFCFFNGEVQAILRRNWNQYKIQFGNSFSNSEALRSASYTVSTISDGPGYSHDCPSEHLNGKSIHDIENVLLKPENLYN

Target: T1, human CGRP receptor (Homo sapiens, UniProt O60894+Q16602)
T1 construct: SK-N-MC neuroblastoma cells (ATCC® HTB-10™) that endogenously express the hCGRP receptor; host or cells: SK-N-MC neuroblastoma cells
Test: Inhibition of cAMP production by CGRP receptor antagonists in SK-N-MC cells (HTRF)
Assay type: cell-based
Conditions: conclusion drawn from Table 3
Excerpt: Inhibition of cAMP Production by CGRP Receptor Antagonists
The hCGRP (human calcitonin gene-related peptide) receptor is functionally coupled to the Gαs proteins. Stimulation of hCGRP results in an increased synthesis of intracellular cAMP and can be blocked by the addition of receptor antagonists. Receptor activity is thus a reflection of the amount of cAMP present within cells which can be detected using standard in vitro technology.
Cultured SK-N-MC neuroblastoma cells (ATCC® HTB-10™) that endogenously express the hCGRP receptor are grown in Eagle's Minimum essential medium (HYCLONE™) supplemented with 10% heat-inactivated Fetal bovine serum (FBS; GIBCO®), Non-Essential Amino Acids (GIBCO®), 1 mM sodium pyruvate, 2 mM L-glutamine, 100 U/mL of penicillin, and 10 μg/mL of streptomycin to about 70% confluency. After providing fresh medium, the cells are incubated at 37° C. overnight. On the day of the assay, cells are detached using ACCUTASE® (MP Biomedicals), resuspended in assay buffer [Hank's Balanced Salt Solution/Dulbecco's phosphate-buffered saline with […] each of CaCl2 and MgCl2 mixed 1:2, 3.3 mM 4-(2-hydroxyethyl)-1-piperazineethanesulfonic acid, 0.03% bovine serum albumin, and 0.5 mM 1-methyl-3-isobutylxanthine (as inhibitor of […])], and seeded 3-5K/well into 384-well, poly-D-lysine coated white plates (BD Biosciences).
For dose-response studies, compounds are serially diluted 1:3 in dimethyl sulfoxide and then 1:10 into assay buffer. Human CGRP (0.8 nM; Bachem) as a receptor-specific agonist for the hCGRP receptor is mixed with diluted compound and added to the cells as the challenge stimulant at their EC80 concentrations.
The amount of intracellular cAMP is quantitated using HTRF technology (Cisbio) as per vendor instructions. Briefly, cAMP-d2 conjugate and anti-cAMP-cryptate conjugate in lysis buffer are incubated with the treated cells at room temperature for 90 min. The HTRF signal is immediately detected using an ENVISION® plate reader (Perkin-Elmer) to calculate the ratio of fluorescence at […]. The raw data are converted to cAMP amount (pmole/well) using a cAMP standard curve generated for each experiment. Relative EC50 values are calculated from the top-bottom range of the concentration response curve using a four-parameter logistic curve fitting program (ACTIVITYBASE® v5.3.1.22 or GENEDATA SCREENER® v12.0.4), and Kb values are estimated as agonist-corrected IC50 values using the equation: Kb=(IC50)/[1+([Agonist]/EC50)]. Estimated Kb values are reported as mean values±SEM, averaged from the number of runs (n).

Structure (SMILES)	antagonism of human CGRP receptor in vitro (in words)
Cc1cc(CNC(=O)c2ccc([C@@H](C)[C@@]3(C)C(=O)Nc4ncccc43)cn2)cc(C)n1 [Example 1, N-[(2,6-dimethylpyridin-4-yl)methyl]-5-{(1R)-1-[(3R)-3-methyl-2-oxo-2,3-dihydro-1H-pyrrolo[2,3-b]pyridin-3-yl]ethyl}pyridine-2-carboxamide]	antagonists of human CGRP receptor in vitro
Cc1cc(CNC(=O)c2ccc([C@@H](C)[C@@]3(C)C(=O)Nc4ncccc43)cc2)cc(C)n1 [Example 2, N-[(2,6-dimethyl-4-pyridyl)methyl]-4-[(1R)-1-[(3R)-3-methyl-2-oxo-1H-pyrrolo[2,3-b]pyridin-3-yl]ethyl]benzamide]	antagonists of human CGRP receptor in vitro
CCc1cc(CNC(=O)c2ccc([C@@H](C)[C@@]3(C)C(=O)Nc4ncccc43)cc2)cc(C)n1 [Example 3, N-[(2-ethyl-6-methylpyridin-4-yl)methyl]-4-{(1R)-1-[(3R)-3-methyl-2-oxo-2,3-dihydro-1H-pyrrolo[2,3-b]pyridin-3-yl]ethyl}benzamide]	antagonists of human CGRP receptor in vitro
Cc1cc(CNC(=O)c2ccc([C@@H](C)[C@@]3(C)C(=O)Nc4ncccc43)cc2)cc(C2CC2)n1 [Example 4, N-[(2-cyclopropyl-6-methyl-4-pyridyl)methyl]-4-[(1R)-1-[(3R)-3-methyl-2-oxo-1H-pyrrolo[2,3-b]pyridin-3-yl]ethyl]benzamide]	antagonists of human CGRP receptor in vitro
Cc1cc(CNC(=O)c2ccc([C@@H](C)[C@@]3(C)C(=O)Nc4ncccc43)cc2)cc(C2CCC2)n1 [Example 5, N-[(2-cyclobutyl-6-methylpyridin-4-yl)methyl]-4-{(1R)-1-[(3R)-3-methyl-2-oxo-2,3-dihydro-1H-pyrrolo[2,3-b]pyridin-3-yl]ethyl}benzamide]	antagonists of human CGRP receptor in vitro
Cc1cc(CNC(=O)c2ccc([C@@H](C)[C@@]3(C)C(=O)Nc4ncccc43)cc2)cc(C2CCCC2)n1 [Example 6, N-[(2-cyclopentyl-6-methylpyridin-4-yl)methyl]-4-{(1R)-1-[(3R)-3-methyl-2-oxo-2,3-dihydro-1H-pyrrolo[2,3-b]pyridin-3-yl]ethyl}benzamide]	antagonists of human CGRP receptor in vitro
Cc1cc(C)nc(CNC(=O)c2ccc([C@@H](C)[C@@]3(C)C(=O)Nc4ncncc43)cc2)c1 [Example 7, N-[(4,6-dimethylpyridin-2-yl)methyl]-4-{(1R)-1-[(5R)-5-methyl-6-oxo-6,7-dihydro-5H-pyrrolo[2,3-d]pyrimidin-5-yl]ethyl}benzamide]	antagonists of human CGRP receptor in vitro
Cc1cc(CNC(=O)c2ccc([C@@H](C)[C@@]3(C)C(=O)Nc4ncccc43)cn2)cc(C2CC2)n1 [Example 9, N-[(2-cyclopropyl-6-methylpyridin-4-yl)methyl]-5-{(1R)-1-[(3R)-3-methyl-2-oxo-2,3-dihydro-1H-pyrrolo[2,3-b]pyridin-3-yl]ethyl}pyridine-2-carboxamide]	antagonists of human CGRP receptor in vitro
Cc1cc(CNC(=O)c2ccc([C@@H](C)[C@@]3(C)C(=O)Nc4ncncc43)cn2)cc(C)n1 [Example 10, N-[(2,6-dimethyl-4-pyridyl)methyl]-5-[(1R)-1-[(5R)-5-methyl-6-oxo-7H-pyrrolo[2,3-d]pyrimidin-5-yl]ethyl]pyridine-2-carboxamide]	antagonists of human CGRP receptor in vitro
Cc1cc(C#N)nc(CNC(=O)c2ccc([C@@H](C)[C@@]3(C)C(=O)Nc4ncccc43)cc2)c1 [Example 11, N-[(6-cyano-4-methyl-2-pyridyl)methyl]-4-[(1R)-1-[(3R)-3-methyl-2-oxo-1H-pyrrolo[2,3-b]pyridin-3-yl]ethyl]benzamide]	antagonists of human CGRP receptor in vitro
Cc1cc(C)nc(CNC(=O)c2ccc([C@@H](C)[C@@]3(C)C(=O)Nc4ncccc43)cc2)c1 [Example 12, N-[(4,6-dimethylpyridin-2-yl)methyl]-4-{(1R)-1-[(3R)-3-methyl-2-oxo-2,3-dihydro-1H-pyrrolo[2,3-]pyridin-3-yl]ethyl}benzamide]	antagonists of human CGRP receptor in vitro
CCc1cc(CNC(=O)c2ccc([C@@H](C)[C@@]3(C)C(=O)Nc4ncccc43)cn2)cc(C)n1 [Example 13, N-[(2-ethyl-6-methylpyridin-4-yl)methyl]-5-{(1R)-1-[(3R)-3-methyl-2-oxo-2,3-dihydro-1H-pyrrolo[2,3-b]pyridin-3-yl]ethyl}pyridine-2-carboxamide]	antagonists of human CGRP receptor in vitro
Cc1cc(CNC(=O)c2ccc([C@@H](C)[C@@]3(C)C(=O)Nc4ncccc43)cc2)cc(C(C)C)n1 [Example 14, 4-{(1R)-1-[(3R)-3-methyl-2-oxo-2,3-dihydro-1H-pyrrolo[2,3-b]pyridin-3-yl]ethyl}-N-{[2-methyl-6-(propan-2-yl)pyridin-4-yl]methyl}benzamide]	antagonists of human CGRP receptor in vitro
Cc1cc(C)nc(CNC(=O)c2ccc([C@@H](C)[C@@]3(C)C(=O)Nc4ncccc43)cn2)c1 [Example 15, N-[(4,6-dimethylpyridin-2-yl)methyl]-5-{(1R)-1-[(3R)-3-methyl-2-oxo-2,3-dihydro-1H-pyrrolo[2,3-b]pyridin-3-yl]ethyl}pyridine-2-carboxamide]	antagonists of human CGRP receptor in vitro
Cc1cc(CNC(=O)c2ccc([C@@H](C)[C@@]3(C)C(=O)Nc4ncccc43)cc2)cc(C#N)n1 [Example 16, N-[(2-cyano-6-methylpyridin-4-yl)methyl]-4-{(1R)-1-[(3R)-3-methyl-2-oxo-2,3-dihydro-1H-pyrrolo[2,3-b]pyridin-3-yl]ethyl}benzamide]	antagonists of human CGRP receptor in vitro
